The subject of one experiment is human neural stem cells. As to the kind of experiment: CellTiter-Glo cell viability assay in hNSC. The format is cell-based. To be noted: 1 h, read-out: Viability: IC50, hNSC.
In the next experiment the test system is HCT116 cells. As to the kind of experiment: CellTiter-Glo cell viability assay in HCT116. The format is cell-based. To be noted: Homo sapiens, HCT-116, 1 h, read-out: Viability: IC50, HCT116.
Experiment [1] relates to class I and II HDAC enzymes. As to the kind of experiment: Panel of fluorogenic assays against ten class I and II HDAC isoforms. Type of experiment: biochemical, human. Particulars: 20 μM.

By IC50 is commonly meant the point on the concentration scale where inhibition reaches its midpoint.

Take `CNC(=O)c1ccccc1Sc1ccc2c(/C=C/c3ccccn3)n[nH]c2c1` [Axitinib]: the IC50 in the experiment on human neural stem cells is 26.8 ± 6.13 µM; with HCT116 cells, 26.7 ± 10.3 µM.

In the case of `O=C(CCCCCCC(=O)Nc1ccccc1)NO` [Vorinostat, suberoylanilide hydroxamic acid], the “inhibition against all class I and II HDAC enzymes” value in experiment [1] is “over 80%”. For the same compound, in experiment [1] (Figure 3), the “inhibition of HDAC isoforms (in words)” value is “inhibited activities of all isoforms”.

Values taken from paper PMC4917448 (Journal of biomolecular screening, 2016).
